Measured values reported in publication PMC10434240.
Results are given in words; binding and its absence hold for the method and conditions named. Binding seen in cells or lysates may run through a third protein. Here binding means that the protein was enriched with, or labelled near, the bait; the list need not be complete.

Amino acid sequences for entries named in this document (tags omitted).
UniProt P90623: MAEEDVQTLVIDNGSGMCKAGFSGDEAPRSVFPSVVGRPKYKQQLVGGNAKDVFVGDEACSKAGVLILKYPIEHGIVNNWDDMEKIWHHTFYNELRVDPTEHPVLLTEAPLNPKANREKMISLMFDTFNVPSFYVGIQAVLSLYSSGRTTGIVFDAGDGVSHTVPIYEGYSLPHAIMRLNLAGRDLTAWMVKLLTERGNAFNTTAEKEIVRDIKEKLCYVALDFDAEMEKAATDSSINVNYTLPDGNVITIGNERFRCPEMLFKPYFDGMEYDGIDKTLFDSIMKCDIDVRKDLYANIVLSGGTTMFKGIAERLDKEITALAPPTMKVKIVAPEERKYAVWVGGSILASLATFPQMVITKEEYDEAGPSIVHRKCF

Target: HA-TvActin (Trichomonas vaginalis) (UniProt P90623)
Experiment: affinity purification with mass spectrometry; HA-TvActin immunoprecipitated with anti-HA agarose beads from lysate of transgenic TH17 trophozoites (1% Triton X-100, 5 mM EDTA in TBS, 4°C overnight); SDS-PAGE, LC-MS/MS, label-free emPAI

B1: Proteasome/cyclosome repeat family protein (protein, UniProt A2EPF2 1-850)
chain: MAEDQLQQTPDEILIETLRTNVEKACNGDLQTRLAAVAVLVEELKKSTSSMTSVPKPMKHLLPYLEELTRAYNTYTNEEFRKKIADLLSLLSIINVDTKYDVLLYRLECPVENIGFWGHEYVRCLTLNLIKASKNLQDLPSGIDINPLVDQISKYYMTHNDEPDACDLLLELNRLEDIVPLVDEESHNRVCTYLLQLYDYKPEPINTNILRVLVTIYKKLNKVNQALIMALKLNDRELAVDIFRNCEDKLVQKQFAFLLARQLIVFDDLMDDELLNIAQNFDLHNLYNKVAEHLGRNKPKTPDDILQFQASIGNRNAQREDKANLGMAKCFVSAFYNAAIKKDLYFTTDTDNKIIRERNVGVGRAVAVASIAMLHLWDIMTGTNNLLYYQSDEDSSDPYVTMGALAGIGLITAAVRSDYDTARALLTPRLENKNQNENVLVGAILGLAFAYGGKADDDLLELLKPHISLDNFRVCAMACLAVGMIYVGHPSDPALVAISQILYDLNETTANAQNAPYLPFLALAIGLIFMGQQGDAIQAALEILSTINSQYAEFFKVVLESLAYAGTGNVLQIQNMLRVCTGDNSISHAAAVIGIAIIALGDPIGTQMSKRMFELILQYGKPNARKMVPIAIALTSISQPLPELVDQLHRIGHDPDVNVARAACVALGLIGAGTNNTRVINTLFALELYHKNDTSVLTLLRNSVGLTHLGQGLMTLSPTYGDGLLIHQVALASLLAVAYSCMNSEELLIKKDPLLLFFIVPAIGPRFLVTLDENLEILPLQVRVGQAVDVVGQAGKPRKITGFQTLDTPVVLEAERELSLLMIHTNFVASWKVLLFVRKRENKANEEKQQ
- binding: binds

B2: G-protein α subunit, putative (protein, UniProt A2EB65 1-363)
chain: MGCGASSAEDTTKQAEQPAQEKPKAAEPKEDGIPIKKSNAEAKEKILTLGAGECGKTTLWRQLKITYCGGFTDSERRNLINALRTAIVGDIQLLVSTAENSNQNFLTEIQSDIDCIKNLDVAQPDDFTTESAESIAKVWADPAIKNVYKASNSIGIGENADYFLDNVKRIADPSYTPTNDDILKARIRTVGISNLTFDVKGIPTNLVDVGGQRNERKNWSKCFQNVTYVMFVVSLSDFDQTLFEDESTTRTADSIELFKNIASTPIFESTPFFLVLNKFDLFQKKIKKSPEAFNSAYPGFTGDINNKDDCINHIKETFINHLPPNRSPDAWIEAIPTCAMDSQSVRNLFQRIAQKIVEKYPSA
- binding: binds

B3: Succinate-CoA ligase (ADP-forming) subunit β, mitochondrial (TVAG_183500) (enzyme, UniProt A2D987 1-409)
chain: MLSASSNFARNFNILEWQSKEICAKFNVAAGINVVARTPEEAAAAFKKIGLPAAVIKAQVYCGGRGKGHWKETGFKSGVHFVKSADEAAKIAKEMLGHHLVTKQTGKDGLLCQAVMLSDPVEVKRELYFAILLDRQTQSPVVIASTEGGVEIEEVAAKHPEKIHKFVLDGVQGITEEVAQTISKKLGLTGKAYENGVEEMQKLWKLFVGSDATQVEVNPLAETTDGRIITVDSKFNFDDSAHYRQKQIFGYRDLKQVNPFEIRAEKYGLNYVPLDGNVACLVNGAGLAMATMDVIKLAGGDPANFLDLGGAASEAAVTEGFTIISSQSHVKAILVNIFGGIVRCDMVAAGVIAAFKKVGLKVPLVVRLEGTNVDAGKKLLRESGLPIIPADNLTDAGIKAVKAANGEKL
- binding: binds

B4: IBD domain-containing protein (protein, UniProt A2EJL0 1-214)
chain: MESGDKQSQLNANELIALQTFLSDSDSAAALCTTEVVDPIGLQFIPKSTWANYKLTSVSALHDSYFSKKNSVTRRFEHKLWNCLRITQVFPSLTKIIGVCWVDNRIIKVYKHPFAKFLSIQCVDGALFHKQGNFSRHGFVDMSEQEAQQQLSPEAYADVDFRDVHLIYHQNGQFTADATEESIANCKWVDPAPATRVAALKLNNPSAEAQMTLE
- binding: binds

B5: Thymidine kinase (enzyme, UniProt A2DM76 1-348)
chain: MQVGRIEVVVGPMFAGKTTEMLRRIDRAELGRRRCVVMKYDKDQRYSTDKVSTHDQYMHDAIPCNELMPHFNECLAYETIGIDEGQFFPDVVEFSEKLANYGKTVIVAALDGTFQRKPFGSVLELMAKCESLTKLTAVCCKTGGEAAFSKRTVNSDSIELIGGAESYTAASRSAFFGTNTSGEIHLTVGPVKSGKTTELLRVLNRYVIAGRKVVCIRPEDVVDHHNPKFEMKLVRDLPDIASLSNYDVIGIDEAQKFKNLADWADELANSGKIVMVSAVDGDEQHHAYPGIIELFPRCEKVMKLDSVCPLTGLPAPFSAVIDGIRMIPISRLGIMYQQSLGLALTAAH
- binding: binds

B6: Ribosomal protein, putative (protein, UniProt A2E4D0 1-370)
chain: MSRQTVNVLAQDGQKASTIELPKVFDTPIRAEVVKEVYVNLAKNAQQPHANDPMAGKKVSAISWGTGRAKACVPRVNGSGSNRNGQGAYANFCRGGHRFNPPTLLRRWFRPVPSRQRKFAIASAIAATAVVPLVQARGHVLGEVKEVPIVVVDAVQEIKRTRDAVELLKKVGVYGDVQRVLDGSVHRSSKGKFRRAAYKTKKGPLVIYNEDKGIVKAFRNIPGVETISVKALALAKLAPAAQVGRLTVWTESAFKALDGIYESKKRFSLPRSIMTNADIEAVITSDAVQSVLNEKKEVVPLPKCRCCKKLSVGACEDWQKALKEVAELRAAQEAKRTSPEVVKAVFAEAVAAQPATPDNMSTQIINHIPL
- binding: binds

B7: 6-Phosphofructokinase (TVAG_391760) (enzyme, UniProt A2DFT9 1-323)
chain: MKRIAVLSSGRDVSGANAAIRSIVRMGGKYGMHVFGITGGFRGLYEDYIAALTSRDVSGKIGKASSFIGTSHAFEYLEDSKIQRCLANLNKRSIEGLIVVGGGGSFAHSRVLADKGVPIIGIPASIQDDVVGTDICLGVDTAVNNIMDCIDHIRSCDSSRNRSFLVQVEGRHSGNLAARSALVTGAEICLIPEHNGRPLEEIYQKVQKSLDTGKTQCITIVSSGWKPGMKALANYIEDKDKENDLIIRQTILGYIQRGGSPSGFDRLLGTRMGAAAVEALNAGNKNHFISLQNSKLEVIPIEDTVGKYRPVDPALFEMIKSTF
- binding: binds

B8: Chaperonin subunit α1 CCTα, putative (protein, UniProt A2E9D9 1-543)
chain: MLPVTPGSLKIDGQRQQGENVRVQNVRAAMAVANVVRSSLGPIGLDKMLVDDIGEVTITNDGATILNHLDVQHPAGKVLIQLSELQDREVGDGTTTVVLLAAELLRLGQDLINKKVHANTIITGYRAAAKKAIAFLKKSCAVSNDNLDREILLKVAKTSMNSKILNAYSDFFGNMVVDACLAVKTPAGKCPTNRVNIVKSLGKSLPESTIVTAGVALNATRATEAFPRRLEKVKVAVLDFGLQRTRLPMGIQFRLHDASKLEAIQQEEVNAAERAVQAILKAGANVIVTSKTIDEASLKPLVKAGAIGIRHVSDAEIAHLARSTGATVVSQLISEDGGETFDPAWLGEAELIEQVPVGDNQMTIFRGCAKENSASIVLRGPNTFTLEEANRSLRDALFAVKRVIESKHIVAGGGAVEAALSVYLSQIAKDYEGKEQVAMLKFGEALLVIPKILANNAALDSIDLVAKLRAVHYDAQQKGEKCFAALDLVNGKIRDGMKDGVIEPGMSKVKSIQFATEAAITILRIDDLIKVTPEKKPDRNEEE
- binding: binds

B9: Amylomaltase (TVAG_120280) (enzyme, UniProt A2D7H3 1-930)
chain: MNFISSNGVIVHFHVRVSTTFGQEVFVSGNIPELGNWDSEKSIKMHFEQNLDYWTVDVELQKSKDPRIVEYKYIISNGDNKQWEPEQNHKLVLGEINENCIINIEDHFHWRDNVLDAFSRATFVGAINSRESPVKSEPITVKQTGDAIQTYFATNCPYVRPNQVLRIVGNVPELGNWDPKNSLVLADGCFPAWTGNKVFAKSSFPFEYKYVIENKDNSTFIWEECENRVCPVPVLSDGKVINYIQDWFVSPNKDLFKGMGIYVPLFSLRTNDSQGIGSYTDLKKCVDACNKMGASLIQLLPINDTTEKGEWCDSYPYRQVSCFALHPVYIDLLAITDKIPAAMKKEIVEAKERFEKFEQVEYPEVFAFKMKYLKEIFKLEKDNFVKDGLEQFLKKNGSWLKPYALFCLLRDEYKTTEFRKWPKYSTITPAELEQVCEQKKNDLLEIYWIQYVADKQFKESYDYATKNHVALKGDLPIGVNINSVECWAFPQLFRLHMCAGAPPDDFSSDGQNWGFPTYDWEAMEKDGFSWWRSRLTRMAELYHQLRVDHILGFFRIWEVPRETCVRGLLGHFFPSVPFSRDELNGMGLWDIERLTKPYVRWHILCEKFHEDAEFVSHKYFNNKGWDAKDDYYEFKPEFDNEKNVAQALDNDKTLSEEKREHYRCCLFQLIGNVILIEDPERKGFFHMRTEVLKDHVEPTKEGPVVYVSSSWNELDEGLKQRVKEEAHKFFYERMTDLWVQKAQPKLNVLKNATKMLICGEDLGQITAGIIRAIDESAILSLHVQRMSKIPEEDFDDFHKFGYLSVACPSTHDTSSLRGWWEETKATRENFWYNVLLRHDACPETLSCEVQEDILKQNIWSNSMWAIFLLQDITSIFPELRLQSADAERINIPADPNHKWRYRYPYKLEDLIANDKLNNHVMQLVRDSHRI
- binding: binds

B10: Amylomaltase (TVAG_154680) (enzyme, UniProt A2F259 1-930)
chain: MNSIAANGVTVHFHVRVSTAFGQEVLISGNIPELGNWDAEKAIKMQFEQNLDYWTANVEIPKSKEQRVVEYKYIISNGDNKQWEPEQNHKLVLGEINENVIINVEDHFHWRDNVLDAFSRATFVGAINSRESPVKSEPISVKQTGDAIQTYFTTNCPYVRPNQVLRIVGNVPELGNWDPKKSLVLADGCFPIWTGNKVFAKSSFPFEYKYVIENKDNNTFIWEDCENRICPTPVSADGKIMNYVQDWFVSPNKDLFKGMGIYVPLFSLRTNESQGIGSYTDLKKCVDACNKMGASLIQLLPINDTTEKGEWCDSYPYRQVSCFALHPVYIDLLAITSKLPAAMKKEIIEAKEKFEKFEQVEYPEVFAFKMKYLKQIFKLEKNEFAKNDLEKFLKKNGSWLKPYALFCLLRDEYKTTEFRKWPKYSTITPAELEEACEKKKNELLEIYWIQYVADKQFEESYDYATKNHVALKGDLPIGVNINSVECWAFPQLFRLHMCAGAPPDDFSSDGQNWGFPTYDWEAMEKDGFSWWRSRLTRMAELYHQLRVDHILGFFRIWEVPRETCVRGLLGHFFPSVPFSRDELNGMGLWDIDRLTKPYIRWHILCEKFQGDAEYVSHKYFNSKGWNAQDDYYEFKPEYDNEKKVLQALENDKTLSDEKREHFKYCLFQLIGNVILIEDPERKGFYHMRTEVIKDHVEATKEGPIVYVSSSWNELDEGLKQRVKEEAHKFFYERMTNLWVQKAQPKLNVLKNATKMLICGEDLGQITAGIIRAIDESAILSLHVQRMSKIPEEDFDDFHKFGYLSVACPSTHDTSSLRGWWEETKATRENFWYNILRRHDACPETLSPEVQEDILKQNIWSNSMWAIFLLQDITSIFPELRLQSAEAERINIPADPNHKWRYRYPYKLEELIANDKLNNHVMQLVRDSHRI
- binding: binds

B11: Elongation factor 1α (protein, UniProt A2DSF6 1-437)
chain: MGKEKEHINIVVIGHVDAGKSTTTGHLIYKCGGLDKRKLAAIEKEAEQLGKSSFKYAFVMDSLKAERERGITIDISLWKFEGQKFSFTIIDAPGHRDFIKNMITGTSQADAAILVIDSTLGGFEAGIAEQGQTREHALLAFTLGIKQVIVAVNKMDDKTVNYNKARFDEITAEMTRILTGIGYKPEMFRFVPISGWAGDNMTEKSPNMPWYNGPYLLEALDSLQPPKRPFDKPLRLPLQDVYKINGIGTVPVGRVESGTMKPGMIVNFAPSTVTAEVKSIEMHHESLPEALPGDNIGFNVKNVSTADVKRGYVVGDTKRDPPVECASFTAQMIISNHPGKIHAGYQPVFDCHTAHIACKFDKLIQRIDRRHGKKATENPEYIQKDDAAIVEVVPSKPLVVESFQEYPPLGRFAIRDMKQTVAVGVIRSVNKKPNPIK
- binding: binds
